The values are deposited in ChEMBL (CHEMBL3988442, “University of Dundee, Small-Polar-MMV Screening Library” (2021)).

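Whole-cell assay for inhibitors of Mycobacterium tuberculosis growth, labelled Cornell in the record; the read-out is not stated. The concentration is filed as 10 mM, unlikely as a test dose, so the dose is not known. The record gives no direction; compounds strong in two other growth screens of this library score well above the rest, so higher reads as stronger inhibition. About 53,000 compounds were tested under these conditions; 1.7% (about 900) showed 50% or more at least once.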

Values are the deposited “Percent Effect”, in %. The record does not define 0% and 100%; most values in the screen are far below 50% and negative numbers occur (in some assays of this library far below -100). The compounds are a random part of those screened.

| # | compound | Percent Effect |
|---|---|---|
| 1 | `Cc1cnc2n(c1=O)CC(C(=O)Nc1ccccc1Cl)CS2` (stereo unspecified) | -19.17% |
| 2 | `COc1ccc(C2CCCN2c2ccc(C#N)cn2)c(OC)c1` (stereo unspecified) | 48.99% |
| 3 | `Cc1nn(-c2ccccc2)nc1C(=O)N1CCCC(n2cccn2)C1` (stereo unspecified) | -1.972% |
| 4 | `Cc1cc(C)c(CNC(=O)NCc2cc(F)cc(F)c2)c(=O)[nH]1` | -44.53% |
| 5 | `O=C(Cc1ccccc1F)N1CCCCC1c1ccn2ccnc2n1` (stereo unspecified) | -5.202% |
| 6 | `Cc1nn(C)c(N2CCCN(C)CC2)c1CNC(=O)C(C)(C)C` | 23.06% |
| 7 | `COc1ccc(CN2CC(O)CN(C(=O)CC(C)C)CC2=O)cc1` (stereo unspecified) | 8.264% |
| 8 | `CC/C=C(/C)C(=O)N1CSCC1C(=O)N(C)CCc1ccncc1` (stereo unspecified) | -6.43% |
| 9 | `COc1ccc(C2=NOC(CC#N)C2)cc1` (stereo unspecified) | 7.374% |
| 10 | `[H][C@@]12CS(=O)(=O)C[C@]1([H])N(Cc1nc3ccccc3[nH]1)CCN2CC=C(C)C` | 17.98% |
| 11 | `Cc1csc(C(=O)NCCn2nc(-n3cncn3)ccc2=O)c1` | 0.9799% |
| 12 | `[H][C@@]12COC[C@@H](C(=O)N3CCOCC3)[C@]1([H])CN(CC1CCCC1)C2` | 25.98% |
| 13 | `CC(NC(=O)c1cc(=O)n(C)c(=O)n1C)c1ccccc1-n1cccn1` (stereo unspecified) | 0.9638% |
| 14 | `CCNS(=O)(=O)c1ccc2c(c1)c(=O)n(CC)c(=O)n2CC` | 5.155% |
| 15 | `CN(C)CC1(O)CCCN(C(=O)Cc2ccc(Cl)c(Cl)c2)C1` (stereo unspecified) | 2.772% |
| 16 | `[H][C@@]12CN(Cc3ccccn3)C(=O)N1CCN(C1CCOCC1)C2` | -2.863% |
| 17 | `O=C(NC[C@H]1OC[C@@H](NC2CCC(F)(F)CC2)[C@@H]1O)c1ccccc1` | -11.04% |
| 18 | `COc1ccccc1CN(Cc1nc(Cc2ccccc2)no1)C1CC1` | 11.16% |
| 19 | `NC(=O)CC1CCN(C(=O)NCC2(c3ccccc3F)CC2)CC1` | 5.877% |
| 20 | `O=C(O)C(F)(F)F.O=C(O)C(F)(F)F.O=C(O)C(F)(F)F.[H][C@@]12CO[C@H](CNc3ncccn3)[C@]1([H])CCN(Cc1ccccn1)C2` | 28.63% |
| 21 | `[H][C@]12CCCC[C@]1([H])N(C(=O)C1CCOCC1)CC[C@@]2(O)c1ccccc1` | -13.6% |
| 22 | `CC(=O)N1CCCC1c1cc(Nc2nnc(C)s2)nc(C)n1` (stereo unspecified) | -60.54% |
| 23 | `O=S(=O)(CCCN1CCc2c(ncn2C2CC2)C1)c1ccccc1` | -14.95% |
| 24 | `COCCCN1CCC(N(Cc2noc(C)n2)C(C)=O)C1` (stereo unspecified) | 3.686% |
| 25 | `OC1(CN2CCCC(Cn3cncn3)C2)CCCCC1` (stereo unspecified) | 2.144% |
| 26 | `Cc1cc(C(O)CCNS(=O)(=O)c2ccc(Cl)s2)c(C)o1` (stereo unspecified) | 22.4% |
| 27 | `CN(CCCc1cnn(C)c1)C(=O)C1CCOC1` (stereo unspecified) | -16.74% |
| 28 | `CSCc1noc(CN2CC(Cc3ccccc3)CC2=O)n1` (stereo unspecified) | 9.967% |
| 29 | `O=C(O)C(F)(F)F.[H][C@@]12CCN(c3cnccn3)C[C@]1([H])CN(C(=O)c1cncn1C)C2` | -37.78% |
| 30 | `Cl.Cl.Cn1nc(C2CNCCO2)cc1CCOc1ccc(Cl)cc1` (stereo unspecified) | 0.462% |
| 31 | `CCc1ccc(S(=O)(=O)Nc2cc(C(=O)O)c(F)cc2F)s1` | 1.964% |
| 32 | `Cc1nn(C)c(C)c1CCC(=O)N1CCN(CCn2cncn2)CC1` | 1.051% |
| 33 | `CCOC1CCC2(CCN(C(=O)c3csnn3)CC2)c2ccccc21` (stereo unspecified) | -42.85% |
| 34 | `COC(=O)c1ccc(N2CCN(C(=O)c3cnn(C)c3)C(C)C2)cc1` (stereo unspecified) | -16.76% |
| 35 | `N#Cc1ccc(NCC(O)c2ccco2)c(C(F)(F)F)c1` (stereo unspecified) | 12.67% |
| 36 | `CC(C)CN1C[C@H](COCc2ccccc2)Oc2ncccc2C1=O` | -10.08% |
| 37 | `CN(Cc1cc2n(n1)CCNC2)Cc1noc(C2CCC2)n1` | -1.716% |
| 38 | `O=C(O)C(F)(F)F.c1csc(CN2Cc3nccn3CC(Cn3cncn3)C2)n1` (stereo unspecified) | 42.89% |
| 39 | `CC(C)c1nc(-c2ccnc(N3CCNCC3)n2)no1.Cl.Cl` | 24.4% |
| 40 | `COCC(=O)Nc1cc(S(=O)(=O)C(F)(F)F)ccc1OC` | -17.87% |
| 41 | `O=C(O)[C@@H]1CCN(C(=O)c2cscn2)[C@@H]1c1ccc(F)cc1` | 2.051% |
| 42 | `Cc1ccc(CNC[C@H]2Cn3cc(-c4ccccc4)nc3CO2)cc1` | 17.8% |
| 43 | `CC(=O)N1CCCCCC1C1CCN(Cc2nc(C(C)C)no2)CC1.Cl` (stereo unspecified) | 6.539% |
| 44 | `CN1CCN(C(=O)c2cccc(S(=O)(=O)NCC3(C)COC3)c2)CC1` | 20.59% |
| 45 | `Cc1csc(CN2CCC[C@]3(C[C@@H](Oc4ccccn4)CO3)C2)n1.O=C(O)C(F)(F)F.O=C(O)C(F)(F)F` | 17.45% |
| 46 | `Cc1noc(-c2ccc(N3CCCC(C(=O)c4nccn4C)C3)nc2)n1` (stereo unspecified) | -63.76% |
| 47 | `CCN1CC(C(=O)N(C)Cc2cc3cc(F)ccc3[nH]2)CC1=O` (stereo unspecified) | 42.66% |
| 48 | `Cc1sc2ncc(-c3ccnc(NC4CCN(C)CC4)n3)c(=O)n2c1C` | 18.53% |
| 49 | `CN1CCc2ccc(NCc3cccs3)cc2C1=O` | 15.04% |
| 50 | `O=C(c1cc(F)cc(F)c1)N1CCC(O)(C(F)(F)F)CC1` | -14.71% |
| 51 | `CCn1ncnc1CN1CCc2[nH]cnc2C1c1ccccn1` (stereo unspecified) | 6.697% |
| 52 | `CCCc1noc(CCC(=O)NC(C)c2nnc3n2CCCCC3)n1` (stereo unspecified) | -9.889% |
| 53 | `CC(C)NC(=O)c1nc2c(s1)CCCN2Cc1ccccc1` | -7.95% |
| 54 | `[H][C@@]12CCN(C(=O)C3CCSCC3)C[C@]1(COC)CCO2` | -2.821% |
| 55 | `Fc1cccc2ncnc(NCCCc3ccncc3)c12` | 16.95% |
| 56 | `CS(=O)(=O)N1CCC2(CC1)COC(COc1ccccn1)C2.O=C(O)C(F)(F)F` (stereo unspecified) | -2.061% |
| 57 | `CN(C)CCNC(=O)c1ccc2c(-c3nccs3)noc2c1` | 16.31% |
| 58 | `Cc1ncc(CNC(=O)CCc2c(C)noc2C)c(C2CCCN2C)n1` (stereo unspecified) | -11.45% |
| 59 | `O=c1n(CCSCc2ccccc2Cl)nc2ccccn12` | 25.12% |
| 60 | `COCCNC(=O)NC1(c2nc(-c3ccncc3)no2)CCCCC1` | 2.834% |
| 61 | `CS(=O)(=O)NC1CCCN(c2ccc(C#N)cn2)C1` (stereo unspecified) | -4.024% |
| 62 | `O=C(O)C(F)(F)F.O=C(O)C(F)(F)F.[H][C@]12C[C@H](CN(C)C(C)C)O[C@@]1([H])CN(Cc1ccco1)C2` | 35.9% |
| 63 | `Cn1cc(Cl)c(C(=O)N2CCc3nc4sccc4c(=O)n3CC2)n1` | -15.25% |
| 64 | `COc1ccc(Cl)cc1CCNC(=O)NCc1ccncc1` | 59.54% |
| 65 | `COc1ccccc1CNC(=O)CN(C)C(C)c1ccon1` (stereo unspecified) | 8.141% |
| 66 | `COc1ccc(OC)c(C2CCN(C(=O)C3CCOCC3)C2)c1` (stereo unspecified) | 30.58% |
| 67 | `Cc1nc(-c2ccccc2)cc(C2CCNCC2)n1.Cl` | -22.07% |
| 68 | `CC1N(c2cnn(C)c2)C(=O)COC12CCN(CC1CC1)CC2.O=C(O)C(F)(F)F` (stereo unspecified) | 5.131% |
| 69 | `CCCC(Nc1c(C#N)c(=O)n(C)c(=O)n1C)c1ccc(F)cc1F` (stereo unspecified) | 42.73% |
| 70 | `Cn1nc(CC(C)(C)C)cc1NC(=O)c1ccc2[nH]nnc2c1` | -9.641% |
| 71 | `[H][C@]12CCC[C@@]1(COCC1CC1)CN(C(=O)Cc1ccco1)C2` | 2.387% |
| 72 | `Cc1cnc(CN2CCN(c3nc(C)cs3)C(C)C2)cn1` (stereo unspecified) | 22.04% |
| 73 | `[H][C@@]12CCN(C(=O)OCc3ccccc3)C[C@@]1([H])OC(CO)C2` (stereo partly specified) | -9.443% |
| 74 | `CC(=O)N1CC(c2ccnc(Nc3ccc(C)cn3)n2)C1` | -22.47% |
| 75 | `Cn1cc(C2(C)CN(Cc3ccc(O)c(Cl)c3)CCO2)cn1` (stereo unspecified) | 26.84% |
| 76 | `Cc1nccn1-c1cc(CNC(=O)CCNC(=O)C2CCCC2)ccn1` | 19.05% |
| 77 | `COC(=O)c1cccn1C1CCN(C(=O)c2c(C)noc2C)CC1` | -46.27% |
| 78 | `Cc1ccc(CN(C(=O)C(C)NC(N)=O)C2CC2)cc1C` (stereo unspecified) | -11.31% |
| 79 | `Cc1nc(N2CCC(C(O)c3nccn3C)CC2)c2sccc2n1` (stereo unspecified) | 22.35% |
| 80 | `CCCN(CCC)S(=O)(=O)NCCc1cc(C)ccc1OC` | 31.5% |
| 81 | `CC(C)N1CCC(C(=O)N2CCc3c(nc(CC4CC4)[nH]c3=O)C2)CC1` | 24.73% |
| 82 | `COCC(=O)N(C)Cc1nc(N2CCCC2)ncc1-c1ccncc1.Cl` | -25.87% |
| 83 | `Cc1noc(C)c1C(=O)N(C)C(C)c1cccnc1` (stereo unspecified) | 9.434% |
| 84 | `CC(NC(=O)c1cc2n(n1)CCCN(C)C2)c1cn2ncsc2n1` (stereo unspecified) | 29.8% |
| 85 | `CCOc1ccc(C#N)cc1NCC(=O)NC1(C#N)CCCC1` | 10.54% |
| 86 | `CCc1ccc(C(COC)NC(=O)c2ccc(O)nc2)o1` (stereo unspecified) | 8.596% |
| 87 | `Cc1ncc(CNC(=O)CCc2cccc(F)c2)c(C2CCCN2C)n1` (stereo unspecified) | -10.34% |
| 88 | `Cc1ccc(NC(=O)Cn2ccc3c(=O)n(C)ccc32)cc1F` | 26.79% |
| 89 | `O=C(O)C(=O)O.c1ccc2c(c1)SCCC2NCc1ccc(N2CCOCC2)cc1` (stereo unspecified) | -31.6% |
| 90 | `Cc1nn(C)c2c(N3CCN(C)CC3)nc(C3CC3)nc12` | 23.91% |
| 91 | `COCCN1CCN(Cc2ccc(OCc3nccn3C)cc2)CC1` | 1.785% |
| 92 | `[H][C@@]12C[C@H](C)O[C@]1([H])CCN(C(=O)CCOC)C2` | -18.55% |

7 of the entries, repeated:

For CC/C=C(/C)C(=O)N1CSCC1C(=O)N(C)CCc1ccncc1 (stereo unspecified) the result was -6.43%.
For O=C(O)[C@@H]1CCN(C(=O)c2cscn2)[C@@H]1c1ccc(F)cc1 the result was 2.051%.
For Cc1nn(C)c(C)c1CCC(=O)N1CCN(CCn2cncn2)CC1 the result was 1.051%.
For O=C(NC[C@H]1OC[C@@H](NC2CCC(F)(F)CC2)[C@@H]1O)c1ccccc1 the result was -11.04%.
For [H][C@]12CCC[C@@]1(COCC1CC1)CN(C(=O)Cc1ccco1)C2 the result was 2.387%.
For COCCNC(=O)NC1(c2nc(-c3ccncc3)no2)CCCCC1 the result was 2.834%.
For COC(=O)c1ccc(N2CCN(C(=O)c3cnn(C)c3)C(C)C2)cc1 (stereo unspecified) the result was -16.76%.